The values below come from article PMC3047137.

The chains behind the UniProt entries cited, without tags or fusion partners.
UniProt Q16665: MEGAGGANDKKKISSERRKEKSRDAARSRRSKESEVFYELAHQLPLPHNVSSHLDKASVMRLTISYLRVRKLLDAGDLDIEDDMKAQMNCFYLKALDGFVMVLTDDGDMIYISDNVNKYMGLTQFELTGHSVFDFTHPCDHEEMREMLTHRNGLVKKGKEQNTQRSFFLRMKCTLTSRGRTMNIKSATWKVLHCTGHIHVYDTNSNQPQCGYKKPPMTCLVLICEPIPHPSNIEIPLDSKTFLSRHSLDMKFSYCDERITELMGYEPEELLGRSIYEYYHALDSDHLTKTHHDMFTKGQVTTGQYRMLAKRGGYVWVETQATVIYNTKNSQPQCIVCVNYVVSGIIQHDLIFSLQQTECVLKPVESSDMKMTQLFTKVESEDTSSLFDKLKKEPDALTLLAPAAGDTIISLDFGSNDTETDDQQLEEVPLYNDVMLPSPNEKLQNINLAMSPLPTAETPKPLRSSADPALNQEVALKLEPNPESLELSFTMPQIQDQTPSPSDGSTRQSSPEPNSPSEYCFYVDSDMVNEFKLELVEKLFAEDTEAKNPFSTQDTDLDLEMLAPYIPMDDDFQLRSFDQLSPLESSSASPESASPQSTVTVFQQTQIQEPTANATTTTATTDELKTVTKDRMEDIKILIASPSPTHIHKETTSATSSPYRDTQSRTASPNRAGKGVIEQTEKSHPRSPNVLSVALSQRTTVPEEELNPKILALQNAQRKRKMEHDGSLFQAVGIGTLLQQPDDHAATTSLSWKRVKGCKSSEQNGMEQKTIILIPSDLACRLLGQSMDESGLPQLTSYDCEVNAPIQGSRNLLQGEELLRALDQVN
UniProt Q9QZR5: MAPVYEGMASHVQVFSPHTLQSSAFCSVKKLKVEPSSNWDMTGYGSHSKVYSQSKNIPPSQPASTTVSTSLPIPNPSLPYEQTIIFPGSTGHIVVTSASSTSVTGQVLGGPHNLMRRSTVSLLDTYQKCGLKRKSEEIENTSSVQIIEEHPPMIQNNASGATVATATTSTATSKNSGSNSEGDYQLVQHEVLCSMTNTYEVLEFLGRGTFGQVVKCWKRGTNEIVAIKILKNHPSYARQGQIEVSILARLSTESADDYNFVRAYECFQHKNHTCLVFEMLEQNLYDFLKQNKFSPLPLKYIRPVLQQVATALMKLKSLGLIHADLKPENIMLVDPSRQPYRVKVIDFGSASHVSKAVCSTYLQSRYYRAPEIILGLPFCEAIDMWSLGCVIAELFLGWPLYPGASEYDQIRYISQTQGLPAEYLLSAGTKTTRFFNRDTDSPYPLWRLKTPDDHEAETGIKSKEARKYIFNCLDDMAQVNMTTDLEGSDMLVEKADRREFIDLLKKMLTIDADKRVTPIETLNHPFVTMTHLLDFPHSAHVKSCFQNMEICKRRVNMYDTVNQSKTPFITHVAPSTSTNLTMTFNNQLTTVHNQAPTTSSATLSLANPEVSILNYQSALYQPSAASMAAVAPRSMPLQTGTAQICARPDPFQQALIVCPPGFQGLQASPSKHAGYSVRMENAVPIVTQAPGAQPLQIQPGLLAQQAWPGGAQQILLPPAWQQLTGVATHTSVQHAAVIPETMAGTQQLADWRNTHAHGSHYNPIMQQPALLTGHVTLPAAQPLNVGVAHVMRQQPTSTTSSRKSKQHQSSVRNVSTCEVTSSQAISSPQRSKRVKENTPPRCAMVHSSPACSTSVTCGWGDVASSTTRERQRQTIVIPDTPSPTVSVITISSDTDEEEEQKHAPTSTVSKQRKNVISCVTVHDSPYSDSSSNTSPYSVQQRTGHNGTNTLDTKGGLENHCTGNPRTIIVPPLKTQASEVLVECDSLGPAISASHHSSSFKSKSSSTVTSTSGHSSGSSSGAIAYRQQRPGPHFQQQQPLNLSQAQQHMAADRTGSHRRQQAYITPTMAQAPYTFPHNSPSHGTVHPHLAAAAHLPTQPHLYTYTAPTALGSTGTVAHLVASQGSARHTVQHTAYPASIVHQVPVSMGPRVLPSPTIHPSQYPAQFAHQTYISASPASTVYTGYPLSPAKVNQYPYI

The target in this assay is HIF-1α-Flag (Flag-tagged hypoxia-inducible factor 1 alpha subunit) (UniProt Q16665). In words: co-IP; 293 cells co-transfected with 4 μg HIPK2-GFP and 8 μg HIF-1α-Flag for 24 h; total cell extracts (20 mmol/L Hepes, 100 mmol/L NaCl, 5 mM EDTA pH 8.0, 10% glycerol) immunoprecipitated with anti-Flag antibody on protein G-Agarose, 2 h at 4 °C; immunoblot with anti-GFP.

These are yes or no findings as the source states them, for the method shown. In cells and extracts the contact can be indirect.

Regarding “HIPK2-GFP (homeodomain-interacting protein kinase-2, GFP-tagged) (from UniProt Q9QZR5 1-1196)”, the binding entry is “no binding”.
